From PubChem BioAssay AID678 (Vanderbilt High Throughput Screening Facility, 2007)
Hit rate of the full screen: of about 1,700 compounds, about 15 (0.9%) were called active.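 The calls were made as follows: active = fluorescence response below the plate's average for near-maximal glutamate wells, less 3 SD of those wells; inactive = the rest.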 The list shows a part of the results, in another mix than the full data.

Molecular target: Metabotropic glutamate receptor 4 (Homo sapiens) (UniProt Q14833)
Assay: human mGluR4 response to M1 antagonist hits, M1 allosteric modulator project, cell-based, antagonist mode, secondary assay 1 (AID 678);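 also: raw unnormalized fluorescence span taken in the window right after glutamate addition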
Details: CHO-mGluR4 calcium flux, Fluo-4 fluorescence, glutamate EC80; at 10 µM; hits give low values

Q: For `CCOC(=O)C1SC2(C(F)(F)C(F)F)CC1(O)c1c(c(OC)c3occc3c1OC)O2` (stereo unspecified), which fluorescence response (max-min) is on record?
A: inactive: 232
